Assay results from patent publication EP4803540A1 (FNCTBiotech Inc., dated 2026).
These are yes or no findings as the source states them, for the method shown. Some binding calls cover weakened binding; strength is not graded here.

Target: T1, human CSF3 protein (human), P09919
T1 chain: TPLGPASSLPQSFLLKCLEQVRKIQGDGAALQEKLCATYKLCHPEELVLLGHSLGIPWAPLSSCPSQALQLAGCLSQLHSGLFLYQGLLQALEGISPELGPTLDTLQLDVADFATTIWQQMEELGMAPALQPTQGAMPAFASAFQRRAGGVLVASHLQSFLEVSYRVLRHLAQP
Experiment: high-mass MALDI MS, 'cross-validation experiment' on the antigen alone
Details: remark: other sources report otherwise

B1: human CSF3 protein, P09919 31-207 (ligand)
chain: T1 chain
binding: binds
